Test results reported in the supplement of paper PMC6411743.
± gives the standard deviation of the averaged measurements. The entries are a selection whose mix differs from that of the whole data set. Most values lie at the level of the controls, where differences are scatter.

The chains behind the UniProt entries cited, without tags or fusion partners. Where a name states a change or a piece, a line headed by the entry shows the natural chain unless it says otherwise.
UniProt Q6PI78: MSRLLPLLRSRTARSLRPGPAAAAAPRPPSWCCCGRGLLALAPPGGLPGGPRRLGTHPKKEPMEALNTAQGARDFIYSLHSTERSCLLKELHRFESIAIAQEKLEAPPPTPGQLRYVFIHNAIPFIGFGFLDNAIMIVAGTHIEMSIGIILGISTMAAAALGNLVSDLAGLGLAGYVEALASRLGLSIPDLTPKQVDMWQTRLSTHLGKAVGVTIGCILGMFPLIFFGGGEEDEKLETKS
UniProt Q8IUH3: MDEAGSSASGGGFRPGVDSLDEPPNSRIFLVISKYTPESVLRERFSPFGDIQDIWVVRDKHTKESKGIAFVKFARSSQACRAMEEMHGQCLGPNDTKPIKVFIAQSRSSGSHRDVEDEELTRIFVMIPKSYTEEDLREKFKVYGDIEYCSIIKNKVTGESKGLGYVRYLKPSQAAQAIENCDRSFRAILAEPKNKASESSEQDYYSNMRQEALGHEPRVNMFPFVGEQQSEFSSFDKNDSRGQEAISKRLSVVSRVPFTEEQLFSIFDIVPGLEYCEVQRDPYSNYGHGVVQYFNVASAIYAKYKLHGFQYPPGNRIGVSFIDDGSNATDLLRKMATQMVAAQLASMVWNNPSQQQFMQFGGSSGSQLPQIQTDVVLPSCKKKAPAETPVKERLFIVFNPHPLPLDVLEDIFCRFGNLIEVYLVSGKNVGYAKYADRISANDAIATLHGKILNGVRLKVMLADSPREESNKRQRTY
UniProt Q86WQ0: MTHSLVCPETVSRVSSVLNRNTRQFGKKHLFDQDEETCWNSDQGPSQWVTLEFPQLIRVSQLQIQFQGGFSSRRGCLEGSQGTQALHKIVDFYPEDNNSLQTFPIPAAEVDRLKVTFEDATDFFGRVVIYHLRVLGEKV
UniProt Q7L7X3: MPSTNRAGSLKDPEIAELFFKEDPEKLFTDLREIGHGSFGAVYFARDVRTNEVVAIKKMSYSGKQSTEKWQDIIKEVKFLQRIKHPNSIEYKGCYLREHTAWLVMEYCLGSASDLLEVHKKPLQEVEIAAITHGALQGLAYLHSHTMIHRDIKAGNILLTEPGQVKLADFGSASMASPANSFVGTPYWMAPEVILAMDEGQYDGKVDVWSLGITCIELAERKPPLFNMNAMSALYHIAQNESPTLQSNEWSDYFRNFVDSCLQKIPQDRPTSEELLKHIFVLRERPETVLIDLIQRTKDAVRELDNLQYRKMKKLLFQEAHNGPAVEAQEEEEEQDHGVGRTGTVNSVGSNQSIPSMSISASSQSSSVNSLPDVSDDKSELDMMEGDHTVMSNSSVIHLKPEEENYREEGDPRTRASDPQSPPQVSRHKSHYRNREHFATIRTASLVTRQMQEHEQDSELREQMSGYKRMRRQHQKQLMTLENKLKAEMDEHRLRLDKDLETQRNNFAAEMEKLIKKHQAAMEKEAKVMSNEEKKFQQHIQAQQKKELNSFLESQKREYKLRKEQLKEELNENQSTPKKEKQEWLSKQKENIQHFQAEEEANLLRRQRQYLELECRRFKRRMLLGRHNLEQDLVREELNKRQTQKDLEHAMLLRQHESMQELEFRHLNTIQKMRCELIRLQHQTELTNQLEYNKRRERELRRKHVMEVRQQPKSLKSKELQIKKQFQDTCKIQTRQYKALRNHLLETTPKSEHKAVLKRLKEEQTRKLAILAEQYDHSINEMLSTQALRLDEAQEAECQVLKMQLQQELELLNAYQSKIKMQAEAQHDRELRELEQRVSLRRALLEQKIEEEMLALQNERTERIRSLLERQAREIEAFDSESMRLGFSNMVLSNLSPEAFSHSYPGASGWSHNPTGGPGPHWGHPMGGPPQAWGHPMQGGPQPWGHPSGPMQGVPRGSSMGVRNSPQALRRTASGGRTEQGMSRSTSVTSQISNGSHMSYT
UniProt Q7Z3B4: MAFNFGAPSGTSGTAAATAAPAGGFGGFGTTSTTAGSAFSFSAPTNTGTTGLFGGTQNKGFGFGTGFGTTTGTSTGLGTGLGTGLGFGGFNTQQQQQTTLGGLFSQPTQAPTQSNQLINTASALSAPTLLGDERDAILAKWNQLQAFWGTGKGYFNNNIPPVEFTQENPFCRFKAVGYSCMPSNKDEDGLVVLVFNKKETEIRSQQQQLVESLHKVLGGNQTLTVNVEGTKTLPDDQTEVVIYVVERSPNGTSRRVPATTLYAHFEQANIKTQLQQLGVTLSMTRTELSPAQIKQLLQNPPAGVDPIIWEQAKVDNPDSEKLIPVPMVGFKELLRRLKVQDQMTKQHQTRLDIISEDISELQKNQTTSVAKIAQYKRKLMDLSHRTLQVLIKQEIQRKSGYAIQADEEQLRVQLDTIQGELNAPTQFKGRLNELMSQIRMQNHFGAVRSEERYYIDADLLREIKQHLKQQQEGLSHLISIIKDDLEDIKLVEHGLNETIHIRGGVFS
UniProt Q7L5D6: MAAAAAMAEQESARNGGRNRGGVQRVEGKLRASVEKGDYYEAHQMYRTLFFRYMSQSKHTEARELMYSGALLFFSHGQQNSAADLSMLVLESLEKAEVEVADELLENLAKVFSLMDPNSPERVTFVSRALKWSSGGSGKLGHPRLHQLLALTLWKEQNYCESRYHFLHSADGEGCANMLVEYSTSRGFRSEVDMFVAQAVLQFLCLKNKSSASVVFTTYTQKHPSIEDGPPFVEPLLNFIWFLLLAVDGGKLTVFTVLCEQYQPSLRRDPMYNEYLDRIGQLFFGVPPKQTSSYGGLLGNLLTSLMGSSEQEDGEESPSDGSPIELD
UniProt Q86SZ2: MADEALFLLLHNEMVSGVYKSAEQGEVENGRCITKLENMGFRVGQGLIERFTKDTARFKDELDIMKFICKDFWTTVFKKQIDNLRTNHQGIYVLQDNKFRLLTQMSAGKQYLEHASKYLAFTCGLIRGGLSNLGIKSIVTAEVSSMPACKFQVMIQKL
UniProt Q7Z7A4: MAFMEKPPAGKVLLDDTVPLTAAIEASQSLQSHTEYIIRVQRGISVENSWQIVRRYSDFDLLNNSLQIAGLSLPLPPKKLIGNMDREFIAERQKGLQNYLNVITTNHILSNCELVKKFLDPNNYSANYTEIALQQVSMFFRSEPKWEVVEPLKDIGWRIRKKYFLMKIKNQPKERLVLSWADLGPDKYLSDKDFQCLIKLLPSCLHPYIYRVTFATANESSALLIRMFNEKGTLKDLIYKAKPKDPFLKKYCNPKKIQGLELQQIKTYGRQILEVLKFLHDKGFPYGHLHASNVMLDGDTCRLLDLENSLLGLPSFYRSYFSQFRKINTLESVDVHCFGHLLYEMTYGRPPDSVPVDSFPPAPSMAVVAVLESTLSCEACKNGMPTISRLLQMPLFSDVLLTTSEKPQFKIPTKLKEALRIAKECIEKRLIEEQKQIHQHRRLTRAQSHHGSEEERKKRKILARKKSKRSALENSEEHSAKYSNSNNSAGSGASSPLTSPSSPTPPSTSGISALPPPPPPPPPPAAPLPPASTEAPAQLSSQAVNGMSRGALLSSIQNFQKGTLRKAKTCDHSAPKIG
UniProt Q86UE4: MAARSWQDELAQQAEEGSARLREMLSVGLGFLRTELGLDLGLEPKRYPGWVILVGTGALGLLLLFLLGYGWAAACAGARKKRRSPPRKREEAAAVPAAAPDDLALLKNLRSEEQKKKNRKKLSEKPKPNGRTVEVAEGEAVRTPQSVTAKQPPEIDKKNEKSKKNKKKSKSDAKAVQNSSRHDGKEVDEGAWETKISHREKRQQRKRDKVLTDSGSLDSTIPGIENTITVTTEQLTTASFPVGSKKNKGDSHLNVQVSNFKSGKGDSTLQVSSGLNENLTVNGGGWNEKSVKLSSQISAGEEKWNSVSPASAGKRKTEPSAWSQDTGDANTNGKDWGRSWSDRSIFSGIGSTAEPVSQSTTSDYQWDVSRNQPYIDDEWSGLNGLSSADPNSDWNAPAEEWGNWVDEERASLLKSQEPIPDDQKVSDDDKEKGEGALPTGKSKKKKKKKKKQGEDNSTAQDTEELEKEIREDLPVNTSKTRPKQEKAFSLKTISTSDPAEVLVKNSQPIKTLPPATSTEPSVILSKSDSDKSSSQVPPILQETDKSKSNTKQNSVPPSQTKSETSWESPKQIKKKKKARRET
UniProt Q86UK7: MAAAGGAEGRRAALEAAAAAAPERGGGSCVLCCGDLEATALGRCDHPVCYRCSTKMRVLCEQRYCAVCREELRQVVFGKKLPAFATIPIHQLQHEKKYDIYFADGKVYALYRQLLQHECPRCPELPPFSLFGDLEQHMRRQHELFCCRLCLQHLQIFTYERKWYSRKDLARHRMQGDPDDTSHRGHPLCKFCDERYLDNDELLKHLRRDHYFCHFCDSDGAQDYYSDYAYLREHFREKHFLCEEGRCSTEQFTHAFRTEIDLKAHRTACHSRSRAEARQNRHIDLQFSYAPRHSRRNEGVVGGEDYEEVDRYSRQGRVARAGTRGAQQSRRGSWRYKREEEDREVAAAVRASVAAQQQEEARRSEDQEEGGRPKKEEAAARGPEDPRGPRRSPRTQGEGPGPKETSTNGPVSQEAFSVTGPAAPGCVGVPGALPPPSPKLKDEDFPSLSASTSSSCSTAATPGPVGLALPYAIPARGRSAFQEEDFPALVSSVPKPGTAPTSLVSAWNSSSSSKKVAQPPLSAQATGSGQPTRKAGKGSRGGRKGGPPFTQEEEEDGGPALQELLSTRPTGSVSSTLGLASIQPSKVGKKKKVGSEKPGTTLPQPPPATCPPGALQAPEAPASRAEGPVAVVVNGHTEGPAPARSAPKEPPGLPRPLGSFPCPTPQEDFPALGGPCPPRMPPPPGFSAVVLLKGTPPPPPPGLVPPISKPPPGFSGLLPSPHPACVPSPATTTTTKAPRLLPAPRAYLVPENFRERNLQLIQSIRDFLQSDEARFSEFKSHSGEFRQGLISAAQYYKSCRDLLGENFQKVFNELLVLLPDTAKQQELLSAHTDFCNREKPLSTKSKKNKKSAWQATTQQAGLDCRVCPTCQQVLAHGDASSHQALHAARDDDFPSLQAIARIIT
UniProt Q8IUQ4: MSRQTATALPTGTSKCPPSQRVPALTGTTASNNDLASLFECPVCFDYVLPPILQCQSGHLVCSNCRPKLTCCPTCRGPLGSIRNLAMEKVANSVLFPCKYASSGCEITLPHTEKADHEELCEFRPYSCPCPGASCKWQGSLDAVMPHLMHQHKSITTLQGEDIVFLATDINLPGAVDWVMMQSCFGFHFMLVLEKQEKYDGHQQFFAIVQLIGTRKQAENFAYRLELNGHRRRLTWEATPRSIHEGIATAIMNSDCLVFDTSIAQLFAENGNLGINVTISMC
UniProt Q86YS6: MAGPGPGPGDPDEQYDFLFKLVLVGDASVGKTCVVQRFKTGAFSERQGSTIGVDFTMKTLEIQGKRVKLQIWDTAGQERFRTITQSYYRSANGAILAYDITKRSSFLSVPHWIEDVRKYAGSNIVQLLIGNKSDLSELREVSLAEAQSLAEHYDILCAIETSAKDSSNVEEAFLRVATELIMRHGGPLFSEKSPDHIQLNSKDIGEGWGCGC
UniProt Q86T24: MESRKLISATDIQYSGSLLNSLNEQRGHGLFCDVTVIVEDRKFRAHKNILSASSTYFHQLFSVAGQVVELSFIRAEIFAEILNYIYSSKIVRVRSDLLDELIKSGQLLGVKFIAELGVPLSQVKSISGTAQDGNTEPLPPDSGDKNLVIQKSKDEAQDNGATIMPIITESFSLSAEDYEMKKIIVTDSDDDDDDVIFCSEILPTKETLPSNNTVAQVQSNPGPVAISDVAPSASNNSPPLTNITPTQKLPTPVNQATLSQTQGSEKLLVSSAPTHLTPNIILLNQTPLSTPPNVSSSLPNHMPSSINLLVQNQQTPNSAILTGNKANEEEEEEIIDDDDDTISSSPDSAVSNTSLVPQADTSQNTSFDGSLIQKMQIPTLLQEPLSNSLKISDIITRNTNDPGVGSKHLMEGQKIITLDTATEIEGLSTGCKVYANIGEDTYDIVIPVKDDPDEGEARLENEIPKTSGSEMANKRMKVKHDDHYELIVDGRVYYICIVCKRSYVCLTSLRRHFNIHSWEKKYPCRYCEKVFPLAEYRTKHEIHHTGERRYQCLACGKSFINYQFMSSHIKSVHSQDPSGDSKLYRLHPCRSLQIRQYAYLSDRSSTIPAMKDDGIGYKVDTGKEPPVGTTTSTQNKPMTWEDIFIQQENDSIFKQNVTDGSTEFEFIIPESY
UniProt Q6PHR2: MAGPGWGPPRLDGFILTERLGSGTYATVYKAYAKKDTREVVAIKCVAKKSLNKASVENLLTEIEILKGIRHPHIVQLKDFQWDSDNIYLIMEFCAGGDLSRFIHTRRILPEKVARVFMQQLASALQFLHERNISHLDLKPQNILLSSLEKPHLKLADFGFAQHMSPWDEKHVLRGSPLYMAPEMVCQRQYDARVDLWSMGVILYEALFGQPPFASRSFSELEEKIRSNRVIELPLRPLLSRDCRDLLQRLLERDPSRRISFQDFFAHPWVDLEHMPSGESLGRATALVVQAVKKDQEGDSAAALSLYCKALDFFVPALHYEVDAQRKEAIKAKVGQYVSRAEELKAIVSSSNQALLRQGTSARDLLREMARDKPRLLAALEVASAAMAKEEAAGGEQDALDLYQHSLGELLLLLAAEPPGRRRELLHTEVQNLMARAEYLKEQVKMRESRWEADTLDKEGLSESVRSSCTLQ

compound: Nc1ncnc2c1ncn2[C@@H]1O[C@H](COP(=O)(O)OP(=O)(O)OP(=O)(O)O)[C@@H](O)[C@H]1O [adenosine triphosphate]; assay: NP40-soluble protein abundance relative to vehicle (solubility fold change) (ratio); higher = more soluble protein in presence of ATP; conditions: concentration: 0.5mM
Outline: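 Across three independent experiments, values are fold changes against the detergent-processed vehicle for each replicate, based on vsn-normalised intensities. The samples were Jurkat crude lysate treated with eight concentrations (0.1 to 10 mM) for 10 min at room temperature and then 3 min at 37 °C. Lysate was solubilised with 0.8% NP40 and benzonase, ultracentrifuged, and the supernatant analysed by TMT-labelled LC-MS/MS.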

Target	NP40-soluble protein abundance
Q76L82 and related entries (UniProt Q8IXJ9+Q76L82)	1.01 ± 0.16
TMEM65 (UniProt Q6PI78)	1.02 ± 0.051
FASTKD5 (UniProt Q7L8L6)	0.961 ± 0.025
TBC1D10C (UniProt Q8IV04)	0.895 ± 0.14
UniProt Q6UX04	1.08 ± 0.055
UniProt Q86XK3 and related entries	1.09 ± 0.11
UniProt Q8IUH3 and related entries	1.03 ± 0.077
UniProt Q7Z333 and related entries	1.025 ± 0.0044
UniProt Q86WQ0 and related entries	1.08 ± 0.068
UniProt Q86XN8 and related entries	0.94 ± 0.24
UniProt Q6PII5-2|B4DED4	0.958 ± 0.062
TAOK1 (UniProt Q7L7X3)	1.03 ± 0.022
UniProt Q7Z3B4 and related entries	1.01 ± 0.04
UniProt Q6PJG6	0.981 ± 0.037
UniProt Q7L5D6	0.923 ± 0.027
UniProt Q86V59 and related entries	1.07 ± 0.12
TRAPPC6B (UniProt Q86SZ2)	0.925 ± 0.11
UniProt Q7Z7A4 and related entries	0.972 ± 0.035
UniProt Q6ZSZ5	1.02 ± 0.012

Target	NP40-soluble protein abundance
MTDH (UniProt Q86UE4)	1.09 ± 0.028
RABEPK (UniProt Q7Z6M1)	1.02 ± 0.046
UniProt Q86UK7 and related entries	1.04 ± 0.011
UniProt Q8IUQ4 and related entries	0.932 ± 0.072
UniProt Q7Z3D6-2|H0YB09 and related entries	1.05 ± 0.077
UniProt Q86YS7 and related entries	1.049 ± 0.0063
UniProt Q6UN15 and related entries	1.09 ± 0.13
RAB43 (UniProt Q86YS6)	1.05 ± 0.059
ZBTB33 (UniProt Q86T24)	1.01 ± 0.024
UniProt Q6PHR2 and related entries	1.09 ± 0.039
UniProt Q6UXN9	1.05 ± 0.024
KTN1 (UniProt Q86UP2)	0.972 ± 0.06
EPM2AIP1 (UniProt Q7L775)	0.987 ± 0.1
UniProt Q7Z624	0.98 ± 0.097
UniProt Q6SJ93 and related entries	0.958 ± 0.098
UniProt Q7L8J4 and related entries	0.968 ± 0.024
UniProt Q86UB9 and related entries	1.05 ± 0.071
UniProt Q6PIJ6 and related entries	1.02 ± 0.032

Quoted at random: two records from the list, in no set order.
Target	NP40-soluble protein abundance
UniProt Q86UK7 and related entries	1.04 ± 0.011
UniProt Q6PHR2 and related entries	1.09 ± 0.039
